For some assays here: Protein sequences can lack the tags named with them. For some assays here: The exact form of at least one protein or probe is not confirmed.
Key:
[1] = test system: PpuMI restriction endonuclease (native) (Pseudomonas putida); assay: enzyme reaction in vitro; details: 4 units native PpuMI; purified native protein; protein details: New England Biolabs; only the site is given
[2] = test system: T1, PpuMI restriction endonuclease (recombinant, clones PP2/PP3) (Pseudomonas putida); assay: enzyme reaction in vitro; details: complete digestion at 1:10 extract dilution, partial at 1:100; protein in a lysate after overexpression; only the site is given
T1 sequence: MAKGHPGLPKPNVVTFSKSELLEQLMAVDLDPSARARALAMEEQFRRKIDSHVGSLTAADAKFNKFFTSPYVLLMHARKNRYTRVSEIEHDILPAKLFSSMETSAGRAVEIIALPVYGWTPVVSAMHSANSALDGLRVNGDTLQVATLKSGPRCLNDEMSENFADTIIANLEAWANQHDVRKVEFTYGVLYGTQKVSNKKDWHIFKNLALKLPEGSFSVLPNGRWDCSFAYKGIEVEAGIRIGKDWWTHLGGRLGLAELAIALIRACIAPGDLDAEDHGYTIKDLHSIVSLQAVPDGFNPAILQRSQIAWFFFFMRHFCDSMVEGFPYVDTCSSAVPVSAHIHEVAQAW

With “AGATCTTCTTGAGATCCTTTTAGGTCCTGCGTAATCTGCTGCCGGC (double strand)” the “activity on this sequence” value [1] was “active” and the “activity on this sequence” value [2] was “active”.
